Taken from: PubChem BioAssay AID1259308 (NCATS, 2017)
Aim: 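Genes whose loss raises luciferase production in HEK293 cells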 (primary screen). System: human HEK293 embryonic kidney cells stably expressing firefly luciferase (HEK-CMV-Luc2-Hygro). Knock-down reagent: single siRNA against human genes, 0.8 pmol siRNA per well. Timing: 72 h. Measured: 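Luciferase light (ONE-Glo) measured on one replicate plate set and viability (CellTiter-Glo) on the other, scaled to a negative control siRNA, with robust z-scores and luciferase per cell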. Direction: total luciferase, z-score: higher = more reporter protein produced. Rule for the call: 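Active when the median/MAD z-score for overall luciferase is greater than 3; a gene was taken forward for validation with new siRNAs if at least two of its three siRNAs passed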. Calls: active = raised luciferase; inactive = no rise.
The whole screen tested about 59,000 reagents; below is an unselected part. Of all reagents, about 1,510 (2.6%) are marked active. 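Calls use total luciferase alone and ignore viability, so some active siRNAs may act by altering cell number.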 Entries without a mark were called inactive. Reagents against one gene are numbered here. Further read-outs or replicates are left out here.

total luciferase, z-score, by gene knocked down and reagent
CRISP3 (cysteine rich secretory protein 3): #1 -0.742; #2 -1.06; #3 -0.12
MMP15 (matrix metallopeptidase 15): #1 -0.298; #2 -0.828; #3 -0.312
ACAT1 (acetyl-CoA acetyltransferase 1): #1 1.28; #2 1.04; #3 0.768
ATG4D (autophagy related 4D cysteine peptidase): #1 -1.89; #2 0.0466; #3 0.492
ZNF135 (zinc finger protein 135): #1 -0.915; #2 0.15; #3 0.202
APOC1 (apolipoprotein C1): #1 -0.0816; #2 0.421; #3 -1.39
COMMD7 (COMM domain containing 7): #1 -0.201; #2 -1.24; #3 0.354
SIGLEC9 (sialic acid binding Ig like lectin 9): #1 -1.03; #2 -0.531; #3 -0.0968
METAP1 (methionyl aminopeptidase 1): #1 0.703; #2 1.39; #3 -1.16
KRT82 (keratin 82): #1 3.57 (active); #2 -1.92; #3 -0.549
OSTM1 (osteoclastogenesis associated transmembrane protein 1): #1 0.391; #2 0.0144; #3 -0.106
PPIL4 (peptidylprolyl isomerase like 4): #1 1.89; #2 3.54 (active); #3 0.178
ILK (integrin linked kinase): #1 0.294; #2 0.948; #3 -1.4

Entries above whose target name begins with S or s:
total luciferase, z-score, by gene knocked down and reagent
SIGLEC9 (sialic acid binding Ig like lectin 9): #1 -1.03; #2 -0.531; #3 -0.0968
